At least one compound was matched to its structure with a doubt left.
Key:
[1] = system: S6 kinase activity in S2 cells; assay type: cell-based, Drosophila; settings: 20 nm rapamycin for 15 min before 100 μM cycloheximide
Description: (§1) Cell extracts are prepared and Drosophila p70^S6K activity is measured as previously described (28) or following immunoprecipitation (Lane, H. A., et al. (1992) EMBO J 11, 1743-1749) with the D20 antibody (2.5 μg).
S2 cells are plated at 5×10^7 cells per 15 cm dish in Schneider's medium supplemented with antibiotic and 10% foetal calf serum. After 24 h, cells are changed to Schneider's medium without serum and after an additional 36 h, 5 plates of cells are treated with 100 μM cycloheximide for two hours with or without pretreatment with […] rapamycin for 15 min. Cell extracts are prepared by dounce homogenisation in Extraction buffer lacking PNPP as described in Reinhard et al., above. Briefly, each extract is centrifuged for 30 min at 3×105 g, filtered through a 0.2 μm membrane (Millipore), and applied at a flow rate of 0.5ml per min to a 1 ml Mono Q column (Pharmacia) equilibrated in Buffer F (Kozma, S.C., et al. (1989) EMBO J 8, 4125-4132). The column is washed with 10 ml of Buffer F, developed at 0.5 ml per min with a 30 ml gradient from 0-0.5M NaCl in the same buffer, and each fraction is diluted 20-fold and assayed for kinase activity. Factions 16-19 are concentrated on 100 μl of FFQ Sepharose and eluted with 300 μl of 0.5M NaCl in Buffer F. […]

[2] = system: S6 kinase activity in S2 cells; assay: in vitro S6 kinase assay of Mono Q fractions of S2 cell extracts; assay type: cell-based, Drosophila
Drosophila p70S6K = assay: S6 kinase activity immunoprecipitated with D20 antibody from concentrated Mono Q fractions; assay type: cell-based, Drosophila melanogaster; settings: fractions 16 to 18, sample pretreated with rapamycin prior to cycloheximide
Description: as §1
S2 cells are plated at 5×10^7 cells per 15 cm dish in Schneider's medium supplemented with antibiotic and 10% foetal calf serum. After 24 h, cells are changed to Schneider's medium without serum and after an additional 36 h, 5 plates of cells are treated with 100 μM cycloheximide for two hours with or without pretreatment with […] rapamycin for 15 min. Cell extracts are prepared by dounce homogenisation in Extraction buffer lacking PNPP as described in Reinhard et al., above. […]
To distinguish between these rapamycin sensitive and insensitive S6 kinase activities and to determine whether either represented Drosophila p70^S6K, extracts from cycloheximide-stimulated S2 cells, pretreated with or without rapamycin, are fractionated by Mono Q chromatography. The fractions eluted from the Mono Q column are monitored by A280 and subjected to an in vitro S6 kinase assay. […] The concentrated samples from cells treated with cycloheximide either in the absence or presence of rapamycin pretreatment, are either immunoprecipitated and assayed for S6 kinase activity or analysed on Western blots employing the D20 antibody. […]

For CO[C@H]1C[C@@H]2CC[C@@H](C)[C@@](O)(O2)C(=O)C(=O)N2CCCC[C@H]2C(=O)O[C@H]([C@H](C)C[C@@H]2CC[C@@H](O)[C@H](OC)C2)CC(=O)[C@H](C)/C=C(\C)[C@@H](O)[C@@H](OC)C(=O)[C@H](C)C[C@H](C)/C=C/C=C/C=C/1C [rapamycin], the “effect of rapamycin pretreatment on cycloheximide-induced S6 kinase activity” value [1] was “prevented this increase, reducing activity below basal levels”, the “rapamycin sensitivity of first Mono Q peak of S6 kinase activity” value ([2]; peak eluted at 0.13M NaCl, cycloheximide-stimulated S2 cells with or without rapamycin pretreatment) was “rapamycin insensitive” and the “effect of rapamycin pretreatment on second Mono Q peak of S6 kinase activity” value ([2]; peak eluted at 0.29M NaCl, cycloheximide-stimulated S2 cells) was “completely abolished”. For the same compound, the “D20-immunoprecipitated S6 kinase activity after rapamycin pretreatment” value (Drosophila p70S6K) was “no activity could be detected”.

Source: patent US6534311B2, “Drosophila melanogaster p70S6 kinase” (Novartis AG, priority 1996, dated 2003)
